Values of other authors as cited in patent EP0511903B1, “Conjugate of calcitonin and polyethylene glycol” (TEVA PHARMACEUTICAL INDUSTRIES LTD., priority 1991, dated 1998).
Not every detail of the peptide structures is certain; ends, links or a residue may be inferred.

Conditions: compared with salmon CT; cited from earlier work

CC[C@H](C)[C@H](NC(=O)[C@H](C)NC(=O)[C@@H](NC(=O)[C@H](CCC(N)=O)NC(=O)[C@@H]1CCCN1C(=O)[C@H](Cc1ccccc1)NC(=O)[C@@H](NC(=O)[C@H](Cc1c[nH]cn1)NC(=O)[C@H](Cc1ccccc1)NC(=O)[C@H](CCCCN)NC(=O)[C@H](CC(N)=O)NC(=O)[C@H](Cc1ccccc1)NC(=O)[C@H](CC(=O)O)NC(=O)[C@H](CCC(N)=O)NC(=O)[C@@H](NC(=O)[C@H](Cc1ccc(O)cc1)NC(=O)[C@@H](NC(=O)CNC(=O)[C@H](CC(C)C)NC(=O)[C@H](CCSC)NC(=O)[C@@H]1CSSC[C@H](N)C(=O)NCC(=O)N[C@@H](CC(N)=O)C(=O)N[C@@H](CC(C)C)C(=O)N[C@@H](CO)C(=O)N[C@@H]([C@@H](C)O)C(=O)N1)[C@@H](C)O)[C@@H](C)O)[C@@H](C)O)[C@@H](C)O)C(=O)NCC(=O)N[C@H](C(=O)NCC(=O)N[C@@H](C)C(=O)N1CCC[C@H]1C(N)=O)C(C)C [CThumaine, calcitonine humaine]
activité spécifique, fois inférieure à celle de la CT de saumon: ~40 fois
